Laboratory results reported in patent publication US11464879B2, “Cellular targeted active ingredient delivery system” (CELLIS SP. Z O.O. [LTD.], priority 2015, dated 2022).

Columns and labels:
[1] = tested on: CD45+ leukocytes (macrophages, monocytes, lymphocytes, granulocytes); assay: uptake of iron binding protein by CD45+ leukocyte cells; format: cell-based; conditions: cells incubated 1-4 hrs in protein solution (ferritin 0.2 mg/ml; haemoglobin, transferrin 0.1 mg/ml), standard culture conditions
[2] = tested on: cancer cells: mouse mammary cancer, colon cancer, canine mammary cancer, human breast, pancreatic, and bladder cancer; assay: transfer of carrier protein from loaded leukocytes to cancer cells; format: cell-based

B1: ferritins: recombinant mammalian ferritin proteins H and/or L homopolymers; mouse protein of SEQ ID NO: 4 expressed in E. coli (protein)
chain: MTTASPSQVRQNYHQDAEAAINRQINLELYASYVYLSMSCYFDRDDVALKNFAKYFLHQSHEEREHAEKLMKLQNQRGGRIFLQDIKKPDRDDWESGLNAMECALHLEKSVNQSLLELHKLATDKNDPHLCDFIETYYLSEQVKSIKELGDHVTNLRKMGAPEAGMAEYLFDKHTLGHGD
B1 was tested, and the “uptake of the protein by cells” value [1] was “very easily uptake”, the “transport of carrier protein to cancer cells” value (“transport of carrier protein” below) ([2]; from loaded granulocytes) was “very easily transport” and the “transport of carrier protein” value ([2]; from loaded lymphocytes) was “very easily transport”. For the same molecule, the “specificity of transfer, cancer cells versus non-cancer cells” value ([2]; from loaded macrophages) was “much more specific to cancer cells than to non-cancer cells”, the “transport of carrier protein” value ([2]; from loaded macrophages) was “very easily transport” and the “transport of carrier protein” value ([2]; from loaded monocytes) was “very easily transport”.
